Source: PubChem BioAssay AID686943 (Drosophila RNAi Screening Center, 2013)
Screen: 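Fly genes whose loss alters ERK activation after insulin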 (primary screen). Cell system: Drosophila S2R+ haemocyte-like cells expressing YFP-tagged ERK (Rolled). Reagent: long dsRNA against Drosophila genes. Conditions: insulin stimulation versus unstimulated cells; dose and duration not given. Measurement: 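Antibody staining for doubly phosphorylated ERK divided by ERK-YFP signal, as plate z-scores, in insulin-treated and untreated cells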. Reading the numbers: replicate 1, z-score of dpERK with insulin and replicate 2, z-score of dpERK with insulin: higher = more active ERK per ERK-YFP after insulin; replicate 1, z-score of dpERK under basal conditions: higher = more basal active ERK per ERK-YFP; replicate 1, z-score of ERK-YFP with insulin: higher = more YFP-tagged ERK signal.
The screen tested about 23,000 reagents; shown is a random part of those with a known target gene and a result. 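Extra replicates exist only for a retested subset of genes; insulin dose and duration not given; both raised and lowered dpERK matter.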 Names joined by + are all predicted targets of the reagent. Reagent sequences are not shown. The record does not give: the amount of reagent, the time to read-out.

gene,amplicon,"replicate 1, z-score of dpERK with insulin","replicate 2, z-score of dpERK with insulin","replicate 1, z-score of dpERK under basal conditions","replicate 1, z-score of ERK-YFP with insulin"
lncRNA:CR43409 (GeneID 12798155),DRSC01164,0.83,0.28,0.07,0.32
PIP82 (GeneID 31791),DRSC18694,-1.36,-0.59,-0.46,0.5
Mi-2 + Su(Tpl),DRSC09640,0.64,0.37,0.29,-0.1
CG18469 (GeneID 36943),DRSC21838,0.49,-0.07,2.62,1.23
CG14739 (GeneID 41467),DRSC14959,0.23,0.13,-0.08,0.62
Rab3-GAP (GeneID 34626),DRSC02001,0.87,0.09,0.94,0.87
Obp59a (GeneID 37605),DRSC04160,-0.16,0.53,-0.52,0.26
CG11670 (GeneID 41608),DRSC14342,1.01,0.66,0.81,0.03
Camp (GeneID 36948),DRSC07004,0.07,1.51,-0.19,0.11
Ccdc114 (GeneID 42024),DRSC15025,-0.87,-1.49,-0.35,-0.08
Cpr60D (GeneID 246492),DRSC04492,-0.8,-0.33,-0.26,0.78
CG11570 (GeneID 39357),DRSC09844,1.13,0.63,1.19,0.4
EMC5 (GeneID 35159),DRSC02469,0.41,0.73,0.18,0.04
CG32700 (GeneID 31896),DRSC17857,1.02,-0.11,0.12,-0.42
CG32700 (GeneID 31896),DRSC17858,0.58,0.27,0.04,-0.06
PCB (GeneID 36020),DRSC05939,-0.18,-0.16,-0.66,0.56
CG17782 (GeneID 42912),DRSC15267,-1.01,0.21,0.77,0.22
CG42819 (GeneID 10178852),DRSC02264,-0.63,-1.12,-0.67,1.59
ND-75 (GeneID 31762),DRSC18686,-0.28,-0.23,0.01,0.51
lncRNA:CR43613 (GeneID 12798296),DRSC13943,-0.22,0.29,-0.47,-0.06
RhoGEF64C (GeneID 38578),DRSC08318,-0.34,0.44,0.86,0.98
RhoGEF64C (GeneID 38578),DRSC08319,-1.7,0.2,,0.99
nod (GeneID 32107),DRSC18900,0.61,0.22,1.22,0.12
nod (GeneID 32107),DRSC20356,-0.04,-0.53,-1,0.29
CG13733 (GeneID 39951),DRSC10061,-0.16,-0.04,0.88,0.31
zfh2 (GeneID 43795),DRSC17178,0.14,-0.46,1.02,0.51
CG17652 (GeneID 33353),DRSC00511,0.69,1.26,0.9,-0.98
EndoU (GeneID 41931),DRSC15472,0.44,-1.74,1.31,-1.28
cerv (GeneID 32492),DRSC19681,0.14,0.66,-0.43,-0.9
Ids (GeneID 38423),DRSC08222,0.69,0.12,0.8,0.22
trpl (GeneID 36003),DRSC06728,0.59,0.16,-0.14,0.6
trpl (GeneID 36003),DRSC06729,-0.78,0.37,0.97,1.05
St4 (GeneID 36548),DRSC07008,0.83,0.28,2.25,0.27
CG18538 (GeneID 37095),DRSC06765,0.37,0.95,0.89,0.46
ATPsynepsilonL (GeneID 326144),DRSC14548,-1.69,-2.4,-0.56,-1.41
Rheb (GeneID 117332),DRSC12148,2.47,2.38,-0.59,-0.81
flip (GeneID 40539),DRSC12326,0.02,-0.25,-0.58,-0.04
CG14130 (GeneID 39335),DRSC10134,-0.18,-0.46,0.23,0.16
CG4577 (GeneID 33291),DRSC00658,0.49,-0.51,1.38,0.19
disp (GeneID 44274),DRSC12376,1.42,-0.45,-0.29,-0.08
Act79B (GeneID 40444),DRSC11604,-3.29,-2.62,-0.94,0.82
Sf3b3 (GeneID 38093),DRSC08370,2.94,1.04,-0.99,-1.08
Alh (GeneID 40850),DRSC12447,-4.94,-3.55,-3.29,-3.31
Alh (GeneID 40850),DRSC12487,1.46,0.81,-0.18,-0.44
Alh (GeneID 40850),DRSC12488,0.57,1.84,0.39,0.85
mfas (GeneID 41455),DRSC16997,-0.53,-0.05,-0.23,0.2
Bet3 (GeneID 39090),DRSC10388,0.41,0.16,0.82,-0.03
intr (GeneID 43397),DRSC14528,0.6,0.14,-0.47,1.26
CG2961 (GeneID 31954),DRSC18246,0.41,-0.05,0.34,0.14
CG14658 (GeneID 40603),DRSC12244,-1.26,-0.52,-0.27,-0.86
Nep5 (GeneID 43255),DRSC16004,0.06,0.02,-0.29,-0.58
Agpat1 (GeneID 32230),DRSC19879,0.28,-0.1,-0.45,0.11
Agpat1 (GeneID 32230),DRSC19880,0.26,-0.37,0.6,0.13
w-cup (GeneID 34455),DRSC03048,0.83,0.43,0.35,0.77
lva (GeneID 31350),DRSC18403,0.66,0.11,0.24,1.21
CG15236 (GeneID 35595),DRSC04970,-0.12,-0.36,0.1,-0.38
CG15236 (GeneID 35595),DRSC21396,-2.05,-0.96,-1.54,1.34
Best4 (GeneID 39660),DRSC10792,-0.37,0.41,-0.71,0.42
CG7376 (GeneID 38715),DRSC10829,0.32,1.25,6.49,0.08
Capr (GeneID 59172),DRSC10346,2.34,-0.1,0.76,-0.69
DIP-alpha (GeneID 31322),DRSC17891,0.47,1.19,1.54,-0.08
DIP-alpha (GeneID 31322),DRSC17892,0,-1.5,-2.01,0
CG33144 (GeneID 36131),DRSC06132,-0.17,1.32,0.91,0.66
CG33144 (GeneID 36131),DRSC07024,-0.52,-0.63,-0.21,-0.06
lncRNA:CR30009 (GeneID 3771726),DRSC22952,-0.35,-0.19,-0.27,-1.34
CG4661 (GeneID 32238),DRSC19910,0.61,-0.45,0.34,0.61
CG5282 (GeneID 40256),DRSC11775,0.63,-0.22,0.67,0.12
CG15358 (GeneID 33366),DRSC00388,0.79,0.48,-0.37,0.1
Brca2 (GeneID 37916),DRSC04219,-0.45,-0.46,1,0.16
Brca2 (GeneID 37916),DRSC04220,0.75,0.51,-0.2,0.02
CG14537 (GeneID 34072),DRSC02395,-0.55,0.08,0.71,-0.28
CG14332 (GeneID 42098),DRSC14811,0.84,0.09,0.63,-0.69
Vti1a (GeneID 38085),DRSC08563,1.8,2.42,-0.69,-0.72

10 entries from above, showing only “replicate 2, z-score of dpERK with insulin”:
CG4577 (GeneID 33291) [DRSC00658]: -0.51
disp (GeneID 44274) [DRSC12376]: -0.45
Act79B (GeneID 40444) [DRSC11604]: -2.62
Sf3b3 (GeneID 38093) [DRSC08370]: 1.04
Alh (GeneID 40850) [DRSC12447]: -3.55
Alh (GeneID 40850) [DRSC12487]: 0.81
Alh (GeneID 40850) [DRSC12488]: 1.84
mfas (GeneID 41455) [DRSC16997]: -0.05
Bet3 (GeneID 39090) [DRSC10388]: 0.16
intr (GeneID 43397) [DRSC14528]: 0.14
